The values that follow come from PubChem BioAssay AID2685 (National Center for Advancing Translational Sciences (NCATS), 2010).

SMILES strings stand for the structures. This is one part of the list. These are further read-outs of the screen, such as a control signal, another cell line or another target. No call is given for them. Compounds called inactive in the main read-out are mostly missing here. Words in brackets tell the shape of the fitted curve; partial curves, single points and poor fits give uncertain potencies.

In general, AC50 refers to the concentration at which the activity in the assay is half-maximal. Read a low AC50 as activity at low concentration.

The nature of the assay: qHTS Assay for Lipid Storage Modulators in Drosophila S3 Cells.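 For cell number change: cells counted by Cell Tracker Red CMTPX staining in the red channel.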 As to conditions: BODIPY lipid droplet fluorescence, 18-24 h; for cell number change: measured here: cell count max response, cells fed with added oleic acid. The essentials:
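Drosophila S3 cells loaded with oleic acid (400 uM, as added) and compounds at several concentrations; lipid droplets imaged by 488-nm laser-scanning cytometry, 500–530 nm intensity and object ratio to cell channel. Percent activity normalized to 20 uM Triacsin C.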
(qHTS replaces the single test concentration by a dilution series.)

Setting [1] is: measured here: cell number channel AC50, cells fed with added oleic acid.
Where [2] appears, read: measured here: lipid fluorescence (Fed channel) AC50, cells fed with added oleic acid.

With `CCN1CCN(C(CC(C)C)c2nnnn2CS(=O)(=O)c2ccc(C)cc2)CC1` (configuration not stated), the cell number change is -31.7%. Also, the AC50 under setting [1] is 25.9 µM [falling, partial curve].
As for `Cc1nnsc1NC(=O)OCc1ccc(Cl)cc1Cl`, the AC50 under setting [2] is 32.6 µM [rising, single point].
Turning to `CCc1nnc(NC(=O)CCC(=O)N2CCN(c3cccc(Cl)c3)CC2)s1`, the cell number change was found to be 15.5%.
Take `COc1cc2c(cc1OC)C(c1ccsc1)CC(=O)N2` (configuration not stated): the cell number change was 13.3%. The AC50 under setting [2] was 29.1 µM [rising, single point].
For `Cc1cc(NC(=O)CSCC(=O)OCC(=O)Nc2cc(C)c(C)cc2[N+](=O)[O-])no1`, the cell number change is -14.7%. The AC50 under setting [2] was 2.06 µM [falling, partial curve, poor fit].
In the case of `O=C(Oc1ccccc1C(=O)Nc1ccccc1)c1ccc(Br)c([N+](=O)[O-])c1`, the cell number change was -39.2%. In addition, under setting [1], the AC50 is 3.66 µM [falling, partial curve]. Also, the AC50 under setting [2] was 2.91 µM [falling, full curve].
Consider `CC(Oc1ccc(C#N)cc1)C(=O)NC1CCCC1` (configuration not stated), for which the cell number change is -13.4%. Also, the AC50 under setting [2] is 1.46 µM [falling, partial curve, poor fit].
Turning to `CN(C)CCCNC1CS(=O)(=O)CC1O` (configuration not stated), the cell number change worked out at 30.3%.
`O=S(=O)(c1cccc(NC(=S)N2CCN(c3ccc(F)cc3)CC2)c1)C(F)F`: the cell number change is 19.1%. The AC50 under setting [2] was 0.164 µM [rising, full curve, poor fit].
For `CCOC(=O)NC(=O)/C(C#N)=C\Nc1sccc1C(=O)OC`, the AC50 under setting [1] was 0.58 µM [falling, single point].
On to `COC(=O)c1c(NC(=O)c2ccco2)sc(C(=O)Nc2ccc(F)cc2)c1C`, for which the cell number change worked out at 6.7%. The AC50 under setting [2] is 0.146 µM [rising, full curve, poor fit].
On to `Cc1ccc2nc(C3CCN(C(=O)c4ccco4)CC3)[nH]c2c1`, for which the cell number change worked out at 13.8%. Moreover, under setting [2], the half-maximal activity concentration (AC50) is 5.17 µM [rising, partial curve].
Turning to `Cc1cc(NC(=O)Cn2c(=O)oc3ccc(Cl)cc32)no1`, the cell number change came to 35.1%. The AC50 under setting [1] was 29.1 µM [rising, single point]. Moreover, under setting [2], the AC50 is 29.1 µM [rising, single point].
For `CC1(C)CC(=O)N(CC(=O)NCc2ccc(F)cc2)c2ccccc2S1(=O)=O`, the cell number change was -6.59%.
Turning to `COc1ccc(C)cc1NC(=O)C1CCN(S(=O)(=O)c2ccc3c(c2)NC(=O)CO3)CC1`, the cell number change came out at 13.3%. For the same compound, under setting [2], the AC50 was 4.11 µM [falling, full curve].
As to `Cc1ccc(-c2nc(=S)c3c(n2Cc2cccnc2)CC(C)(C)OC3)cc1`, the cell number change worked out at 17.7%. Under setting [1], the AC50 was 2.31 µM [rising, single point].
As for `CSCCC(NC(=O)c1ccc(C(C)(C)C)cc1)C(=O)OCC(=O)N1CCCC1=O` (configuration not stated), the cell number change stood at 3.82%. Under setting [1], the AC50 was 6.51 µM [falling, partial curve, poor fit]. Besides, the AC50 under setting [2] was 6.51 µM [falling, partial curve, poor fit].
